Assay results reported in paper doi:10.1101/2020.01.09.900407.
These are yes or no findings as the source states them, for the method shown. In cells and extracts the contact can be indirect. Binding can be weak; no strength is given.

By UniProt entry, the sequences of proteins in these tests, tags left out. Where a name states a change or a piece, a line headed by the entry shows the natural chain unless it says otherwise.
UniProt Q99MQ3: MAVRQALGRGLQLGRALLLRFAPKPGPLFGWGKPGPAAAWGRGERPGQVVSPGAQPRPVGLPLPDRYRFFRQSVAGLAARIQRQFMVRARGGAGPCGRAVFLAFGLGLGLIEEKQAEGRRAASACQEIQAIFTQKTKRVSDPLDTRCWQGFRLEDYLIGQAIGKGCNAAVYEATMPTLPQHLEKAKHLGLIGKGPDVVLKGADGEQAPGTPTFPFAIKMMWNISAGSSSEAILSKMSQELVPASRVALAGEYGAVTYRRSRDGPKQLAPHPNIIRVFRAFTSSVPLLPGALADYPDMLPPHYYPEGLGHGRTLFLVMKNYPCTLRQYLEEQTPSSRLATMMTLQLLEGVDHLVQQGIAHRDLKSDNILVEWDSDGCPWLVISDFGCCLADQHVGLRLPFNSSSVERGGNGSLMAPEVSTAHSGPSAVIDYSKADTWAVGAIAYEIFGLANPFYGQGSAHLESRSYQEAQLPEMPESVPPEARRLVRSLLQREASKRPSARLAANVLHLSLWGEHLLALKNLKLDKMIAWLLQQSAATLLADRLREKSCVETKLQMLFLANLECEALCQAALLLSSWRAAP

Molecular target: T1, ECSIT (mouse (endogenous in cortex)) (UniProt Q9QZH6)
T1 sequence: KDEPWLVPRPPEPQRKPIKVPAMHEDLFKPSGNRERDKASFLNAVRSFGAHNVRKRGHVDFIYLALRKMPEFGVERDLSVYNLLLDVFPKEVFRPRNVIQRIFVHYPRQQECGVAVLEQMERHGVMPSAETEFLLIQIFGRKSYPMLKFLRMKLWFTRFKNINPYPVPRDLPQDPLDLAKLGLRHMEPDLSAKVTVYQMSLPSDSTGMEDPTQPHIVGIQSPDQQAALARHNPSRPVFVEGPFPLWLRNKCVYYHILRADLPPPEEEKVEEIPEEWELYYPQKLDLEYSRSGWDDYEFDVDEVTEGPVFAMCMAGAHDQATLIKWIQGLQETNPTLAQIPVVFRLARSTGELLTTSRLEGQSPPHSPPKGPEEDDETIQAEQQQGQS
Assay: co-IP

binding: binds
Substance: full-length (FL-)PINK1 (from UniProt Q99MQ3)
